From the supplement of paper PMC10849652
The list shows a part of the results.

Sequences of proteins named here, by UniProt entry; tags and fusion partners are left off. A change or cut given only in a name is not applied to a line headed by its entry.
UniProt Q9Y678: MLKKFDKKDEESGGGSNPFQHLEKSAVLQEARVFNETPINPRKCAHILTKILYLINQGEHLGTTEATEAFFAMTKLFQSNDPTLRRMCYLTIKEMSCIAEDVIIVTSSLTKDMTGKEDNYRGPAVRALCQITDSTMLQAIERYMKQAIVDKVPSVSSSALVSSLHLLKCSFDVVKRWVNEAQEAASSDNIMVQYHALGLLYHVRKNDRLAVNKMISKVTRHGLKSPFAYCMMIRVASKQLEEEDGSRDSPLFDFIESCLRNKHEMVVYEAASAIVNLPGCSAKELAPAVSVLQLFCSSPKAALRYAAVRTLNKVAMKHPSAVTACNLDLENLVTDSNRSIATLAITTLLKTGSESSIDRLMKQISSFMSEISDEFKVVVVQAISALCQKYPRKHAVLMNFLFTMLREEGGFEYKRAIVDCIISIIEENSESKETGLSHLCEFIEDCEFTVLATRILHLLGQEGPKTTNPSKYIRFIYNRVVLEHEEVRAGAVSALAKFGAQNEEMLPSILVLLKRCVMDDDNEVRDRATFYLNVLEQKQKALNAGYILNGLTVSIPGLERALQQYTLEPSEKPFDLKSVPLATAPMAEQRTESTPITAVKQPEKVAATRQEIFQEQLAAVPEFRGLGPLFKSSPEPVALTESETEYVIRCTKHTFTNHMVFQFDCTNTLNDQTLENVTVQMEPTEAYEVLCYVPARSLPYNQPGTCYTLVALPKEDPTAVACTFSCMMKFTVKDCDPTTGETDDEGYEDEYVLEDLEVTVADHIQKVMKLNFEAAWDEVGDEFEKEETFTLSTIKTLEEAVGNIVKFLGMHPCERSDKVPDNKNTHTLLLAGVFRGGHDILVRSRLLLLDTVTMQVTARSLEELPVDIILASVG
UniProt P09543: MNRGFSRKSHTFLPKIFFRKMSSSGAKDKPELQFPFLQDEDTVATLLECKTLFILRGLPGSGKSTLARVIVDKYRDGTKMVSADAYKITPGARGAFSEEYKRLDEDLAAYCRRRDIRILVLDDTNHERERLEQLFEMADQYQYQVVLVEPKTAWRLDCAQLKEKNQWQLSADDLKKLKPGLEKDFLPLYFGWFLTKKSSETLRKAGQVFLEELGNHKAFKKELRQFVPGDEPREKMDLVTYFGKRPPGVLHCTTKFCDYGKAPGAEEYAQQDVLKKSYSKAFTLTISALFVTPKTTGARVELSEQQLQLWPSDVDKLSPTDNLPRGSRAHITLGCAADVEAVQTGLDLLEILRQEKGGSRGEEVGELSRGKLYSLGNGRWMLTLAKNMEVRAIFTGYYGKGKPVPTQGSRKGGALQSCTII
UniProt P13073, whole entry, looked up: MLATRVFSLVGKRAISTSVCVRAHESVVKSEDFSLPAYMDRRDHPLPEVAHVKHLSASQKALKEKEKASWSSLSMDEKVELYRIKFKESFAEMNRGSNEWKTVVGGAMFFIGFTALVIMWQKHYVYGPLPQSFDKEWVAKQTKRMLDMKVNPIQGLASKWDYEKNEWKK
UniProt Q14019: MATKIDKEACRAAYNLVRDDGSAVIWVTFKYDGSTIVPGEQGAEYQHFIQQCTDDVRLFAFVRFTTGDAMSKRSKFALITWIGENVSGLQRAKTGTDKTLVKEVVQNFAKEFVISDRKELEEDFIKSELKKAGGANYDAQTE
UniProt Q9BR76, whole entry, looked up: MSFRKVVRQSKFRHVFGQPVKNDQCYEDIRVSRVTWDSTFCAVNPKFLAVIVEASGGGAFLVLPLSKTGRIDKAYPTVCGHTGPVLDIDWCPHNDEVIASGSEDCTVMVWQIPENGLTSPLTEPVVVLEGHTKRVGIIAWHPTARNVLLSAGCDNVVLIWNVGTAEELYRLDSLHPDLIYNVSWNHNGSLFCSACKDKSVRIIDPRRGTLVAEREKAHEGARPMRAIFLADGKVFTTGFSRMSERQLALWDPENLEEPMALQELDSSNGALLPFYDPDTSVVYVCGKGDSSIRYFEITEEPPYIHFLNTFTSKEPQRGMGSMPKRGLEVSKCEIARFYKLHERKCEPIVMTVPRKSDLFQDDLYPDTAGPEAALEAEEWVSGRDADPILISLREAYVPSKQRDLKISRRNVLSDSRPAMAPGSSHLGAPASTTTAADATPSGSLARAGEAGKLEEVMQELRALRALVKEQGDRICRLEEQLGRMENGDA
UniProt Q9ULV4, whole entry, looked up: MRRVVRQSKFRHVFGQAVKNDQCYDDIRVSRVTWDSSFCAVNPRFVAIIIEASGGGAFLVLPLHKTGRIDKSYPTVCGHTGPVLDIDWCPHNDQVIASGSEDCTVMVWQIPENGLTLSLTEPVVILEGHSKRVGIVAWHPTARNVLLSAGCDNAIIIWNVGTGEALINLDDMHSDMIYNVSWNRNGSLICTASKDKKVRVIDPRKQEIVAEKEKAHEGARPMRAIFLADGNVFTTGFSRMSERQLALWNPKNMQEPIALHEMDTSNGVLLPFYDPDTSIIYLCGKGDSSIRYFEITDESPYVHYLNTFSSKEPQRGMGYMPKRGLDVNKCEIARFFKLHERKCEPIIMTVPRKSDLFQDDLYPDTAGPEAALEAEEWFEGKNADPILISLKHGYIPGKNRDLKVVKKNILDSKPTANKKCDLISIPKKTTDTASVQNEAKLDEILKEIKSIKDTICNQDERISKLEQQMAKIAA
UniProt Q5JTJ3: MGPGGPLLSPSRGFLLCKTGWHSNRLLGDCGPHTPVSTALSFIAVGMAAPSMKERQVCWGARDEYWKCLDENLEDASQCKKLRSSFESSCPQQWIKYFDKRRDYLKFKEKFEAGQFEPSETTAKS
UniProt P78560: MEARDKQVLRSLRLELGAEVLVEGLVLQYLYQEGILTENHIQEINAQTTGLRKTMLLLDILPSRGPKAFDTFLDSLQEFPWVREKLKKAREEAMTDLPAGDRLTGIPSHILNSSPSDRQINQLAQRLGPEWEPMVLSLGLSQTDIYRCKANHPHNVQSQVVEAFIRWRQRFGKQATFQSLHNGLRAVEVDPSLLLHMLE
UniProt O75208: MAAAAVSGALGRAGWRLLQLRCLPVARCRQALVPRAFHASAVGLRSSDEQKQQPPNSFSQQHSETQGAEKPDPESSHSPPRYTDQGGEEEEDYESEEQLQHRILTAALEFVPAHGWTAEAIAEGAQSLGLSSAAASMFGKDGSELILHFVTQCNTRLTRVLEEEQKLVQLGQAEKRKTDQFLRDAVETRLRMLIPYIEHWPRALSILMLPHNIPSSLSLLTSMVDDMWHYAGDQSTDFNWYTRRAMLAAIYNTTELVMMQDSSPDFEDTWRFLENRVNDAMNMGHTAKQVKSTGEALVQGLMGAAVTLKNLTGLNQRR
UniProt Q8WTW3: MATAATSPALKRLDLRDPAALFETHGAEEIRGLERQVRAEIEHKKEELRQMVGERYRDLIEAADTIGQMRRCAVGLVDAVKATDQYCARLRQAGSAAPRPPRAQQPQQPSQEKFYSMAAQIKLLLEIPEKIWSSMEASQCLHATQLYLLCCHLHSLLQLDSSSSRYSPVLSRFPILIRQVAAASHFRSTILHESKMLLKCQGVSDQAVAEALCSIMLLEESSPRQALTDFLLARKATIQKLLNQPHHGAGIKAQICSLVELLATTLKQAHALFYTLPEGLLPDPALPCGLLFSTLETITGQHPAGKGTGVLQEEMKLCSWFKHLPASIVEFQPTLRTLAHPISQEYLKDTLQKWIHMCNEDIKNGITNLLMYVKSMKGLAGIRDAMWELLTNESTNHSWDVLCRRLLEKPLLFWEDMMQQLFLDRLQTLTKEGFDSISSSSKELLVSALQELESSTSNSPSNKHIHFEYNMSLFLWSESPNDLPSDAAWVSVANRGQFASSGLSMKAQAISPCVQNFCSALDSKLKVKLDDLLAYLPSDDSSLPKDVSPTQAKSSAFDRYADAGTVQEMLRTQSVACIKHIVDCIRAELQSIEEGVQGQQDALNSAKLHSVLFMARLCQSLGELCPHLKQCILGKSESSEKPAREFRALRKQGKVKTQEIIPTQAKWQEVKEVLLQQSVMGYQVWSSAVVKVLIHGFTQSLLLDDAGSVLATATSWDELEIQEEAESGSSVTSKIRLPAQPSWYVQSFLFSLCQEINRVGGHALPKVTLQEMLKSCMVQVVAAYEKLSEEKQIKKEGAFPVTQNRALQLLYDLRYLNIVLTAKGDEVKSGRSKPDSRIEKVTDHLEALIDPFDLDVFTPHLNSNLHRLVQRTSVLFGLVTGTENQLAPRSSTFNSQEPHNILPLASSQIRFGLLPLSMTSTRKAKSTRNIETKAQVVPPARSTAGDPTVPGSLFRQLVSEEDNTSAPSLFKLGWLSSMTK
UniProt Q9NQ92: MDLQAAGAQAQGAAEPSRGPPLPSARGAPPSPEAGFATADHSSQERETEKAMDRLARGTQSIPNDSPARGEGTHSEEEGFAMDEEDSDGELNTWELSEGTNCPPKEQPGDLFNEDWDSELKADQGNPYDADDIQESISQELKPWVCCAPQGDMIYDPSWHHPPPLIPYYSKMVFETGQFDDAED
UniProt P09669, whole entry, looked up: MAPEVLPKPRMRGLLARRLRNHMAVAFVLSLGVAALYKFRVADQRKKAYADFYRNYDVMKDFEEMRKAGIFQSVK
UniProt Q9Y2Z9: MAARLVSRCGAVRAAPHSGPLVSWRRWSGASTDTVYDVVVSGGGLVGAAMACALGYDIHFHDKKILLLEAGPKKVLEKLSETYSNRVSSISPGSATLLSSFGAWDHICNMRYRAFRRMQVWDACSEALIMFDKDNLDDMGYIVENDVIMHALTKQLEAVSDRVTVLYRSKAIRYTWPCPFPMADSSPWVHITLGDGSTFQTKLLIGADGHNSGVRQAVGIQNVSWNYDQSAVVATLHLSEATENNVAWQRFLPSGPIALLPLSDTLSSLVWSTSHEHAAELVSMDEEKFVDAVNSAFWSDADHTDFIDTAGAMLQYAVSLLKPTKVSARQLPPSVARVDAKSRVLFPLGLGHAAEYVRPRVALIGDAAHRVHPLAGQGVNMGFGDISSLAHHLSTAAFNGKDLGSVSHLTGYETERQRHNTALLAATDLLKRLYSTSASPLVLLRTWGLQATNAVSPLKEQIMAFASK
UniProt Q9NZN8, whole entry, looked up: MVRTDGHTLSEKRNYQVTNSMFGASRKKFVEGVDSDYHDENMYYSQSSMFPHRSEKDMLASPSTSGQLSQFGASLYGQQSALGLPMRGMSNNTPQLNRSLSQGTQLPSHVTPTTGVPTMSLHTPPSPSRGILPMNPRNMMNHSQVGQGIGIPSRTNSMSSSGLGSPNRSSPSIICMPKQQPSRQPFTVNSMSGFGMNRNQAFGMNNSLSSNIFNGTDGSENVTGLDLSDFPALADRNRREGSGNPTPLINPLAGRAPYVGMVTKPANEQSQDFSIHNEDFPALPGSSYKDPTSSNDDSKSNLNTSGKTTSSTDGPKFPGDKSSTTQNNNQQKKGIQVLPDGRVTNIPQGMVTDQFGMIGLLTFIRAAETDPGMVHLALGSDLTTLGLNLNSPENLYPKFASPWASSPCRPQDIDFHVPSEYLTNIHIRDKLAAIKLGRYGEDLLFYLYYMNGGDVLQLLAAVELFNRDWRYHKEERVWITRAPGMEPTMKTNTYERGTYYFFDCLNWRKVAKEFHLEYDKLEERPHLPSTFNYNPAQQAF
UniProt Q7KZN9: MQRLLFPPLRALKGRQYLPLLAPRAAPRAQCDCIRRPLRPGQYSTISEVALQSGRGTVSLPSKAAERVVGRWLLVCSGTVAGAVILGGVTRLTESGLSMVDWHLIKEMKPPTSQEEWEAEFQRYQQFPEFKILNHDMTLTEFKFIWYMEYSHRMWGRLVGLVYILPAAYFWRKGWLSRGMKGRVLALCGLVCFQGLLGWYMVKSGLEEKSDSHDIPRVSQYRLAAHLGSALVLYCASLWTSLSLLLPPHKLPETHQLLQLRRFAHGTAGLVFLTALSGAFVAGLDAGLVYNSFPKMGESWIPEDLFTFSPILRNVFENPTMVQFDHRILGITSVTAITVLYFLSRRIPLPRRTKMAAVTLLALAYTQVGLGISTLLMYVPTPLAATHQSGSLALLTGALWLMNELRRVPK
UniProt Q99829: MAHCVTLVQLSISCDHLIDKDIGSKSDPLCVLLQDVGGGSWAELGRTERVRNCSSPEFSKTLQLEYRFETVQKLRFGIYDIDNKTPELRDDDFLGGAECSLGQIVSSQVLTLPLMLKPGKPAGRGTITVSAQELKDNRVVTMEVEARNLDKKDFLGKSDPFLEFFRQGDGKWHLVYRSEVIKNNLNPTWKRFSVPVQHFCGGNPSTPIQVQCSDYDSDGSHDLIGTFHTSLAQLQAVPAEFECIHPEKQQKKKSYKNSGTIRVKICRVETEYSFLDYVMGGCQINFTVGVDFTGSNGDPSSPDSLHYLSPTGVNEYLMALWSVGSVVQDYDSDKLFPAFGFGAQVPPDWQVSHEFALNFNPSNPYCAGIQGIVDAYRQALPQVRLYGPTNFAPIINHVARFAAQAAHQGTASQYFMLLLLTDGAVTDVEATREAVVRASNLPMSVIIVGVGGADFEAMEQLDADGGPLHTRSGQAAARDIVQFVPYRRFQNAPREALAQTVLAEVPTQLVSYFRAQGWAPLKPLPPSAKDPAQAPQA
UniProt P29373: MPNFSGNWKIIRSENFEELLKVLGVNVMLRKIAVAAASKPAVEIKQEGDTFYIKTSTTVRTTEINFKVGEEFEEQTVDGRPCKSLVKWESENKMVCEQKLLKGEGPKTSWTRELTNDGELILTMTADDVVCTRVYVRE

What was measured:
Test in all cases: log2 fold change, soluble protein after heating vs DMSO (PISA); higher = thermal stabilisation; K562 lysate, 10 uM; active = over 0.2 and 3.5 SD of the protein, either way, in both replicates (recomputed)
[1] = compound: C=CC(=O)N1CCC[C@@H](n2nc(-c3ccc(Oc4ccccc4)cc3)c3c(N)ncnc32)C1 [ibrutinib]
Method in brief: (§1)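 Quantification was by TMTpro 16plex LC-MS/MS with equalised channel sums, applied to the supernatant after 21,000xg for 90 min. Samples were crude K562 extract at 1 mg/mL protein in PBS pH 7.4 with 1 mM MgCl2, treated with 10 μM compound for 30 min, heated for 3 min across 48°C-58°C, pooled and brought to 0.5% NP-40 at 4°C. Values are log-two fold changes in thermal stability relative to solvent controls, from duplicates.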

[2] = compound: CC(=O)c1cnc2ccc(-c3cc(Cl)c(O)c(Cl)c3)nc2c1N[C@H]1CC[C@H](CN(C)C)CC1
Method in brief: as §1

[3] = compound: CC(C)(C)Cn1c(N)nc2ccc(-c3[nH]c(C(C)(C)C)nc3-c3ccc(F)cc3)nc21 [ralimetinib]
Method in brief: as §1

[4] = compound: CC(C)(O)CC(=O)NCCn1ccc2ncnc(Nc3ccc(Oc4cccc(C(F)(F)F)c4)c(Cl)c3)c21
Method in brief: as §1

[5] = compound: CC(C)C1=C2N=C(C=C(N2N=C1)NCC3=CC=CC=C3)NCCCCCCN
Method in brief: as §1

[6] = compound: CC1=C(C(CC(=O)N1)C2=CC=C(C=C2)C(F)(F)F)C(=O)NC3=C(C=C4C(=C3)C=NN4)F
Method in brief: as §1

[7] = compound: CC1=C(C2=C(C=C1)C(=O)C3=CC=CC=C3N2CCCN)C
Method in brief: as §1

[8] = compound: CC1=C(C=C(C=C1)NC(=O)C2=CC(=CC=C2)C(C)(C)C#N)NC3=CC4=C(C=C3)N=CN(C4=O)C
Method in brief: as §1

[9] = compound: CC1=C(C=C(C=C1)NC(=O)C2=CC(=CC=C2)N(C)C)NC(=O)C3=CC=C(C=C3)O
Method in brief: as §1

[10] = compound: CC1=CC=C(C=C1)SC2=C3C=C(SC3=CN=C2)C(=O)N
Method in brief: as §1

Measured: log2 fold change

COPG1 (UniProt Q9Y678)
inactive: [1] 0.007 | [2] -0.001 | [3] -0.003 | [4] -0.011 | [5] -0.018 | [6] 0 | [7] 0.003 | [8] 0.008 | [9] 0 | [10] -0.003

CNP (UniProt P09543)
inactive: [1] 0.024 | [2] 0.01 | [3] 0.028 | [4] 0.019 | [5] 0.022 | [6] 0.042 | [7] 0.038 | [8] -0.018 | [9] -0.015 | [10] 0.01

COX4I1 (UniProt P13073)
inactive: [1] 0.032 | [2] -0.015 | [3] 0.028 | [4] -0.015 | [5] 0.007 | [6] -0.045 | [7] -0.014 | [8] 0 | [9] -0.008 | [10] 0.015

CNPY3 (UniProt Q9BT09)
inactive: [1] -0.048 | [2] 0.03 | [3] 0.068 | [4] -0.042 | [5] -0.023 | [6] 0.056 | [7] 0.016 | [8] -0.016 | [9] -0.071 | [10] 0

COTL1 (UniProt Q14019)
inactive: [1] 0.038 | [2] 0.001 | [3] -0.025 | [4] 0.049 | [5] -0.007 | [6] -0.055 | [7] 0.02 | [8] -0.019 | [9] -0.015 | [10] -0.004

COMMD5 (UniProt Q9GZQ3)
inactive: [1] 0.031 | [2] -0.009 | [3] 0.016 | [4] -0.053 | [5] -0.036 | [6] 0.031 | [7] -0.025 | [8] 0.013 | [9] -0.008 | [10] -0.005

CPNE8 (UniProt Q86YQ8)
inactive: [1] 0.168 | [2] 0.196 | [3] -0.087 | [4] 0.04 | [5] 0.038 | [6] 0.009 | [7] 0.139 | [8] 0.075 | [9] -0.042 | [10] 0.246

CORO1B (UniProt Q9BR76)
inactive: [1] 0.013 | [2] -0.003 | [3] -0.002 | [4] -0.029 | [5] 0.023 | [6] -0.004 | [7] -0.01 | [8] 0.002 | [9] -0.005 | [10] 0.02

CORO1C isoform 3 (UniProt Q9ULV4)
inactive: [1] -0.003 | [2] -0.029 | [3] -0.011 | [4] 0 | [5] 0.02 | [6] -0.011 | [7] 0.016 | [8] 0.008 | [9] 0.016 | [10] 0.005

CNOT11 (UniProt Q9UKZ1)
inactive: [1] -0.062 | [2] 0.006 | [3] -0.019 | [4] -0.051 | [5] -0.035 | [6] -0.016 | [7] -0.013 | [8] 0.039 | [9] 0.072 | [10] -0.007

COA6 isoform 2 (UniProt Q5JTJ3)
inactive: [1] 0 | [2] -0.001 | [3] -0.249 | [4] -0.065 | [5] -0.047 | [6] 0.136 | [7] 0.019 | [8] -0.012 | [9] 0.052 | [10] -0.032

CRADD (UniProt P78560)
inactive: [1] 0.072 | [2] -0.005 | [3] 0.012 | [4] -0.093 | [5] -0.036 | [6] -0.004 | [7] -0.003 | [8] -0.009 | [9] 0.023 | [10] 0.046

COQ9 (UniProt O75208)
inactive: [1] 0.104 | [2] 0.023 | [3] 0.015 | [4] -0.008 | [5] -0.036 | [6] 0.017 | [7] 0.007 | [8] -0.024 | [9] 0.037 | [10] 0

COG1 (UniProt Q8WTW3)
inactive: [1] 0.015 | [2] 0.008 | [3] 0.022 | [4] -0.045 | [5] 0.009 | [6] 0.016 | [7] -0.114 | [8] 0.007 | [9] 0.001 | [10] 0.042

COIL (UniProt P38432)
inactive: [1] 0.058 | [2] 0.075 | [3] 0.014 | [4] 0.009 | [5] 0 | [6] 0.091 | [7] 0.019 | [8] 0.012 | [9] -0.01 | [10] 0.11

COPS4 (UniProt Q9BT78)
inactive: [1] 0.122 | [2] 0.01 | [3] 0.015 | [4] 0.015 | [5] -0.004 | [6] -0.004 | [7] 0.001 | [8] -0.011 | [9] 0.001 | [10] 0.006

COPRS (UniProt Q9NQ92)
inactive: [1] 0.141 | [2] 0.059 | [3] 0.076 | [4] -0.006 | [5] 0.009 | [6] 0.082 | [7] 0.016 | [8] -0.005 | [9] -0.004 | [10] 0.15

COX6C (UniProt P09669)
inactive: [1] 0.001 | [2] -0.008 | [3] 0.003 | [4] 0.021 | [5] -0.014 | [6] -0.027 | [7] -0.025 | [8] -0.023 | [9] -0.04 | [10] -0.013

COPG2 (UniProt Q9UBF2)
inactive: [1] 0.009 | [2] -0.003 | [3] -0.004 | [4] -0.005 | [5] -0.006 | [6] 0.008 | [7] -0.007 | [8] -0.002 | [9] -0.002 | [10] 0.006

COG6 (UniProt Q9Y2V7)
inactive: [1] -0.003 | [2] 0.005 | [3] 0.016 | [4] -0.059 | [5] -0.028 | [6] -0.017 | [7] 0.016 | [8] 0.004 | [9] 0.033 | [10] 0.021

CPSF1 (UniProt Q10570)
inactive: [1] 0.01 | [2] 0.006 | [3] -0.011 | [4] -0.013 | [5] -0.013 | [6] 0.034 | [7] -0.005 | [8] -0.062 | [9] 0.022 | [10] 0.017

CORO2A (UniProt Q92828)
inactive: [1] 0.076 | [2] -0.006 | [3] 0.007 | [4] 0.02 | [5] 0.049 | [6] -0.016 | [7] -0.113 | [8] -0.002 | [9] 0.009 | [10] -0.01

COQ6 (UniProt Q9Y2Z9)
inactive: [1] 0.041 | [2] -0.012 | [3] 0.006 | [4] -0.135 | [5] -0.025 | [6] 0.082 | [7] 0.034 | [8] 0.036 | [9] 0.022 | [10] 0.005

CNOT2 (UniProt Q9NZN8)
inactive: [1] 0.022 | [2] 0.037 | [3] 0.016 | [4] -0.013 | [5] -0.001 | [6] -0.01 | [7] 0.03 | [8] 0.006 | [9] -0.007 | [10] 0.011

COX15 (UniProt Q7KZN9)
inactive: [1] 0.01 | [2] -0.013 | [3] -0.036 | [4] -0.091 | [5] 0.006 | [6] -0.007 | [7] -0.01 | [8] 0.045 | [9] -0.046 | [10] -0.015

2 successive records out of the list so far, for reference:
CORO1C isoform 3 (UniProt Q9ULV4)
inactive: [1] -0.003 | [2] -0.029 | [3] -0.011 | [4] 0 | [5] 0.02 | [6] -0.011 | [7] 0.016 | [8] 0.008 | [9] 0.016 | [10] 0.005

CNOT11 (UniProt Q9UKZ1)
inactive: [1] -0.062 | [2] 0.006 | [3] -0.019 | [4] -0.051 | [5] -0.035 | [6] -0.016 | [7] -0.013 | [8] 0.039 | [9] 0.072 | [10] -0.007

(listing goes on)

COMMD3-BMI1 (UniProt R4GMX3)
inactive: [1] 0.171 | [2] 0.015 | [3] 0.019 | [4] -0.046 | [5] 0.075 | [6] -0.004 | [7] -0.065 | [8] 0.054 | [9] 0.01 | [10] -0.055

CPNE1 (UniProt Q99829)
inactive: [1] 0.007 | [2] 0 | [3] 0.017 | [4] -0.032 | [5] 0.014 | [6] -0.035 | [7] -0.011 | [8] 0.004 | [9] 0.032 | [10] 0.009

COPB2 (UniProt P35606)
inactive: [1] -0.015 | [2] -0.004 | [3] -0.003 | [4] -0.022 | [5] -0.005 | [6] -0.008 | [7] -0.005 | [8] 0.026 | [9] -0.003 | [10] -0.009

CNNM3 (UniProt Q8NE01)
inactive: [1] -0.017 | [2] 0.003 | [3] 0.021 | [4] -0.056 | [5] -0.017 | [6] -0.001 | [7] -0.032 | [8] 0.039 | [9] -0.01 | [10] 0.037

CRABP2 (UniProt P29373)
inactive: [1] -0.039 | [2] 0.061 | [3] 0.097 | [4] -0.015 | [5] -0.002 | [6] 0.176 | [7] -0.088 | [8] -0.028 | [9] 0.082 | [10] -0.03
